Data taken from patent US20110250207A1 (OREGON HEALTH AND SCIENCE UNIVERSITY, published 2011).
No constants are given. Whether binding was seen depends on the method and setting. Some binding calls cover weakened binding; strength is not graded here.

Chains of the proteins cited; added tags and fusions are not shown. Lines headed by an entry give the natural chain unless they say otherwise; changes in a name come on top.
UniProt P03951: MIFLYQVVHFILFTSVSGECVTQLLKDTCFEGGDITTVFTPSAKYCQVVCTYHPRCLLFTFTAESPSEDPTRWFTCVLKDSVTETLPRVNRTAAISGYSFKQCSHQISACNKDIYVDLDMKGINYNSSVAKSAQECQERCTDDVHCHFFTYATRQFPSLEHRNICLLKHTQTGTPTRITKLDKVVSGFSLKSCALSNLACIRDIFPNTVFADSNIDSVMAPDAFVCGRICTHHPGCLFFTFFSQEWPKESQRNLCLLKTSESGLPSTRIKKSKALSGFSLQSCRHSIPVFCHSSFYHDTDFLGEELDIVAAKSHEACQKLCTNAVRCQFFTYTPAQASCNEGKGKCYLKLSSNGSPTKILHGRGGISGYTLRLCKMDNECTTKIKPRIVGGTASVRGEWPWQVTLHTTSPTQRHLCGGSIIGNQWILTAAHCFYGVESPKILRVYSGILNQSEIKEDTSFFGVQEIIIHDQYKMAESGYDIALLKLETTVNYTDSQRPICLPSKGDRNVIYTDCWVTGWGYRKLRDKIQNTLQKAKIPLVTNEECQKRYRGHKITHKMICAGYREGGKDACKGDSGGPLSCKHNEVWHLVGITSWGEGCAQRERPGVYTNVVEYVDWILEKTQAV
UniProt P03952: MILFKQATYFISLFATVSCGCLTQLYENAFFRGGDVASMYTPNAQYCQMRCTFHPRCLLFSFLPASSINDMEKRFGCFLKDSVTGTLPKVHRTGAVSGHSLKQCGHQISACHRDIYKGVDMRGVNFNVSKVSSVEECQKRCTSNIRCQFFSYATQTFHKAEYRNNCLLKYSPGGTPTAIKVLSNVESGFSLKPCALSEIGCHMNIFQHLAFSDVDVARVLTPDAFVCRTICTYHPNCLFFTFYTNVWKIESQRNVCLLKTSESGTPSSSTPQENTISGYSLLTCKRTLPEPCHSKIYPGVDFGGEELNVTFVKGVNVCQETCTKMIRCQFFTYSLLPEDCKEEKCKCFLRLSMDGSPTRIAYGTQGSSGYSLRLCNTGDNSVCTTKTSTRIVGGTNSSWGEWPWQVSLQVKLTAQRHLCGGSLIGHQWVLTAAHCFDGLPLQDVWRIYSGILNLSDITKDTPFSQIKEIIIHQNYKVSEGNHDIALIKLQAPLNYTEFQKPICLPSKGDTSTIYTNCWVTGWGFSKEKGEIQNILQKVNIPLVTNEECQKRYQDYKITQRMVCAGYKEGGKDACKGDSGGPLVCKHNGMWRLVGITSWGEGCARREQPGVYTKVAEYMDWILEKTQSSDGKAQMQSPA

Molecular target: human fXI with the human prekallikrein A4 domain (human) (UniProt P03951+P03952)
Experiment: immunoblot of fXI/PK chimeras with 14E11 (FIG. 10A)

binding: binds
B1: monoclonal antibody 14E11 (antibody, V domains shown)
VH: QVQLEESGPGLVAPSQSLSITCTVSGFSLTGYGIYWVRQPPGKGLEWLGMIWGDGRTDYNSALKSRLSISKDNSKSQVFLKMNSLQTDDTARYYCARDYYGSKDYWGQGTTLTVSS
VL: DIVMTQSHKFMSTSVGDRVSITCKASQDVSTAVAWYQQKPGQSPKLLIYLTSYRNTGVPDRFTGSGSGTDFTFTISSVQAEDLAVYYCQQHYKTPYSFGGGTKLERLR
notes: also called anti-murine fXI IgG 14E11; anti-fXI IgG 14E11
